Assay results: patent US9580437B2, “Triazolopyrimidine compounds and uses thereof” (Novartis AG, priority 2014, dated 2017)
Structures were worked out from names or drawings and are uncertain.

Protein sequences, listed by entry. Tags and fused reporters are not part of them.
UniProt O75530, whole entry: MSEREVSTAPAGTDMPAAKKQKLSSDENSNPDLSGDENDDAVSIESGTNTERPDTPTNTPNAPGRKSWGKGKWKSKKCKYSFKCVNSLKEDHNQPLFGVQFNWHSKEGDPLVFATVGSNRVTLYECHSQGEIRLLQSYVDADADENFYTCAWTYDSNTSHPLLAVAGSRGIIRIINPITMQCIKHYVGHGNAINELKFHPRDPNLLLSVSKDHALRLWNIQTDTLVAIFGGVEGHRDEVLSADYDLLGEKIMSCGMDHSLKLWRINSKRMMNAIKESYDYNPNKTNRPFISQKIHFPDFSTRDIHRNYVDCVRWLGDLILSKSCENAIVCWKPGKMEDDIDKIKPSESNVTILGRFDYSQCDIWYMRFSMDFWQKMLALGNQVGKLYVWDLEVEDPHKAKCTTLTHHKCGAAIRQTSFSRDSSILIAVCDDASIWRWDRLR
UniProt Q15910, whole entry partner: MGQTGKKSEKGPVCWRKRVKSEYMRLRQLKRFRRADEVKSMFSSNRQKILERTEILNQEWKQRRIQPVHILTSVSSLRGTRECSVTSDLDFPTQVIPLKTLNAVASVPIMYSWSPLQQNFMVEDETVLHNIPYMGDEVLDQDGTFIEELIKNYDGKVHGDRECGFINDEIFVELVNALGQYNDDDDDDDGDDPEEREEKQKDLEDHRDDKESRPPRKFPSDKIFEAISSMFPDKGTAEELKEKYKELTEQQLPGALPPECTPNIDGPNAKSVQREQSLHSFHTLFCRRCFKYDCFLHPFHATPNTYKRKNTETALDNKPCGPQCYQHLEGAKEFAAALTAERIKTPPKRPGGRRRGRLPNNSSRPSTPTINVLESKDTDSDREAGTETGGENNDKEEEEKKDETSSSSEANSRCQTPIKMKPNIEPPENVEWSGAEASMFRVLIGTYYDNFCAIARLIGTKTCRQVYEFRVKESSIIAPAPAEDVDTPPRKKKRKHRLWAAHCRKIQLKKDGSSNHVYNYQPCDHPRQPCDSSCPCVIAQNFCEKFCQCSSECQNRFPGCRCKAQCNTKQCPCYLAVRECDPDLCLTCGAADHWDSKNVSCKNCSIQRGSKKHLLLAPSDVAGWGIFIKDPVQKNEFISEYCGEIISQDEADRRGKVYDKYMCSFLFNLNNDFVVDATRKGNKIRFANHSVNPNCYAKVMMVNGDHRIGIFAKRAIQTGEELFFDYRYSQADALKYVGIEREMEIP
UniProt Q15022, whole entry partner: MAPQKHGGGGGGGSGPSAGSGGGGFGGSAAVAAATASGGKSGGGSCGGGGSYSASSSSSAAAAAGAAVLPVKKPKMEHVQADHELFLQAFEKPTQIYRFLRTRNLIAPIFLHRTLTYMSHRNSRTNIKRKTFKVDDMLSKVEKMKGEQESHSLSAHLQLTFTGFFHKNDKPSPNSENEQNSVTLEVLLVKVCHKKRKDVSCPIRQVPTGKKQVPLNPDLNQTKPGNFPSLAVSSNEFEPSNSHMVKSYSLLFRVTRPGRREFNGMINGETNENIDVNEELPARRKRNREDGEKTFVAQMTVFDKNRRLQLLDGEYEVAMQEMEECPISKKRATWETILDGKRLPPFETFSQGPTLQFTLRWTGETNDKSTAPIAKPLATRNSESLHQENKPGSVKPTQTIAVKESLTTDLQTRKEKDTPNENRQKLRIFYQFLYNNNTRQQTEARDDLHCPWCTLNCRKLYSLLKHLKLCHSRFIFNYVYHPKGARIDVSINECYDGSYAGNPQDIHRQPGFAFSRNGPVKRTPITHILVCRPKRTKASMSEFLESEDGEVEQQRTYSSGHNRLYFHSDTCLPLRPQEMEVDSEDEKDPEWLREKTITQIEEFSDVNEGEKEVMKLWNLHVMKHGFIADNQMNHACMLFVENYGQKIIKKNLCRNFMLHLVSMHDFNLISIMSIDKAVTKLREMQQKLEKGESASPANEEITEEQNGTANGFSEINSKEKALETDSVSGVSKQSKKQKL

Key:
[1] = target: wild type PRC2 (wtPRC2) complex (Homo sapiens (Human), UniProt O75530); assay: EED LC-MS assay; assay type: biochemical; details: read-out: (b) IC50 EED LC-MS Qualified
EED (1-441)-His protein = EED (1-441)-His protein (Homo sapiens (Human), UniProt O75530); assay: EED-H3K27Me3 peptide competition binding assay by AlphaScreen; details: read-out: (a) IC50 EED Alphascreen binding Qualified
[2] = system: H3K27 methylation in G401 cell; assay: ELISA (H3K27 methylation) assay in G401 cells; assay type: cell-based, human; details: read-out: (c) IC50 ELISA Qualified

SMILES: Fc1ccc2c(c1CNc1ncc(-c3cccnc3C(F)(F)F)c3nncn13)CCO2
- IC50 [1]: 31 nM
- IC50 (EED (1-441)-His protein): 11.1 nM
- IC50 [2]: 26.6 nM
